Results reported in paper PMC13659687 (Food Chemistry: Molecular Sciences, 2026).
HELM strings list residues between dots; [ac] is acetyl, [am] amide, other brackets name non-standard units.

Assay: peptide made by a vendor
Conditions: whole synthesis, 220 nm

In the case of PEPTIDE1{K.L.I.M.V}$$$$V2.0, the “purity (crude or final not stated)” value is reported as 95.7%.
